# Experimental data as given in PMC6010098, “Synthesis, antitumour and antioxidant activities of novel α,β-unsaturated ketones and related heterocyclic analogues: EGFR inhibition and molecular modelling study” (Journal of Enzyme Inhibition and Medicinal Chemistry, 2018).
# Test: ABTS radical cation scavenging (antioxidant) assay
# Details: ABTS solution at 734 nm after 20 µl of 1 mg/ml test sample (L-ascorbic acid 2 mM); control of ABTS 0.512
row,Structure (SMILES),Absorbance
1,"CN1CCC(=O)C(=Cc2ccc(OC3CCCC3)cc2)C1 [6a, 3-(4-(Cyclopentyloxy)benzylidene)-1-methylpiperidin-4-one]",0.234
2,"O=C(O)c1cc(C=Cc2ccc(OC3CCCC3)cc2)nc2ccc(Br)cc12 [12a, 6-Bromo-2-(4-(cyclopentyloxy)styryl)quinoline-4-carboxylicacid]",0.275
3,"O=C(O)c1cc(C=Cc2ccc(OC3CCCC3)cc2)nc2ccc(F)cc12 [12b, 2-(4-(Cyclopentyloxy)styryl)-6-fluoroquinoline-4-carboxylicacid]",0.256
4,"Cc1ccc(-c2cc(-c3ccc(OC4CCCC4)cc3)c(C#N)c(=O)[nH]2)cc1 [compound 10, 4-(4-(cyclopentyloxy)phenyl)-2-oxo-6-(4-methylphenyl)-1,2-dihydropyridine-3-carbonitrile]",0.270
5,"O=C1CCCC1=Cc1ccc(OC2CCCC2)cc1 [5a, 2-(4-(Cyclopentyloxy)benzylidene)cyclopentanone]",0.281
6,"Cc1ccc(C2=NNC(c3ccc(OC4CCCC4)cc3)C2)cc1 (stereo not shown) [8a, 5-(4-(Cyclopentyloxy)phenyl)-3-(4-methylphenyl)-4,5-dihydro-1H-pyrazole]",0.240
7,"CCOC(=O)C1=C(C)OC(N)=C(C#N)C1c1ccc(OC2CCCC2)cc1 (stereo not shown) [compound 7, ethyl 6-amino-5-cyano-4-(4-(cyclopentyloxy)phenyl)-2-methyl-4H-pyran-3-carboxylate]",0.124
8,"O=C1O[C@H]([C@@H](O)CO)C(O)=C1O [Ascorbic acid, L-Ascorbic acid, reference compound]",0.051
9,"Cc1ccc(C(=O)C=Cc2ccc(OC3CCCC3)cc2)cc1 [4b, 3-(4-(Cyclopentyloxy)phenyl)-1-(4-methylphenyl)prop-2-en-1-one]",0.243
10,"CC(=O)C=Cc1ccc(OC2CCCC2)cc1 [4a, 4-(4-(Cyclopentyloxy)phenyl)but-3-en-2-one]",0.245
11,"O=C1CCCCCC1=Cc1ccc(OC2CCCC2)cc1 [5c, 2-(4-(Cyclopentyloxy)benzylidene)cycloheptanone]",0.251
12,"Cc1ccc(C2=NOC(c3ccc(OC4CCCC4)cc3)C2)cc1 (stereo not shown) [compound 9, 5-(4-(cyclopentyloxy)phenyl)-3-(4-methylphenyl)-4,5-dihydroisoxazole]",0.204
13,"Cc1ccc(-c2cc(-c3ccc(OC4CCCC4)cc3)c(C#N)c(N)n2)cc1 [compound 11, 2-amino-4-(4-(cyclopentyloxy)phenyl)-6-(4-methylphenyl)nicotinonitrile]",0.279
14,"O=C1CCCCC1=Cc1ccc(OC2CCCC2)cc1 [5b, 2-(4-(Cyclopentyloxy)benzylidene)cyclohexanone]",0.249
15,"Cc1ccc(C2=NN(c3ccccc3)C(c3ccc(OC4CCCC4)cc3)C2)cc1 (stereo not shown) [8b, 5-(4-(Cyclopentyloxy)phenyl)-1-phenyl-3-(4-methylphenyl)-4,5-dihydro-1H-pyrazole]",0.058
16,"CCN1CCC(=O)C(=Cc2ccc(OC3CCCC3)cc2)C1 [6b, 3-(4-(Cyclopentyloxy)benzylidene)-1-ethylpiperidin-4-one]",0.229
